PubChem BioAssay AID1159584, Peter MacCallum Cancer Centre, 2016
Test: 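Knock-downs that harm CDH1-null cells more than parental MCF10A cells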 (primary screen). Cells: human MCF10A breast epithelial cells, parental and CDH1-null. Reagents: siRNA against human genes. Measured: 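ATP luminescence (CellTiter-Glo) viability per line relative to mean mock wells over all plates, and the ratio of CDH1-null to parental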. Direction: CDH1-null / parental viability ratio: higher = CDH1-null cells survive relatively better than parental; CDH1-null viability vs mock: higher = more viable CDH1-null cells.
Shown is a random part of about 18,000 reagents tested. Not all columns of the deposit are shown. Not given: the amount of reagent, the time to read-out.

How did the screen score ZNF718 (zinc finger protein 718) [SID135623002]?
CDH1-null / parental viability ratio: 1.08; CDH1-null viability vs mock (fraction of mock): 0.94

With CWC27 (CWC27 spliceosome associated cyclophilin) [SID152154848], what does the deposit list?
CDH1-null / parental viability ratio: 0.96; CDH1-null viability vs mock (fraction of mock): 0.5

For BIN3 (bridging integrator 3) [SID152155331], what does the deposit list?
CDH1-null / parental viability ratio: 1.07; CDH1-null viability vs mock (fraction of mock): 0.76

With GALNT13 (polypeptide N-acetylgalactosaminyltransferase 13) [SID152154886], how do the results read?
CDH1-null / parental viability ratio: 0.76; CDH1-null viability vs mock (fraction of mock): 0.62

How did the screen score PI4K2B (phosphatidylinositol 4-kinase type 2 beta) [SID56479132]?
CDH1-null / parental viability ratio: 1.36; CDH1-null viability vs mock (fraction of mock): 1.01

For HNRNPA0 (heterogeneous nuclear ribonucleoprotein A0) [SID152150547], what does the deposit list?
CDH1-null / parental viability ratio: 0.87; CDH1-null viability vs mock (fraction of mock): 0.87

What did the screen give for KANK1 (KN motif and ankyrin repeat domains 1) [SID135622415]?
CDH1-null / parental viability ratio: 0.8; CDH1-null viability vs mock (fraction of mock): 0.51

For FOXJ2 (forkhead box J2) [SID135621755], how do the results read?
CDH1-null / parental viability ratio: 0.85; CDH1-null viability vs mock (fraction of mock): 0.82

How did the screen score RBP3 (retinol binding protein 3) [SID152151095]?
CDH1-null / parental viability ratio: 1.08; CDH1-null viability vs mock (fraction of mock): 0.64

What is on record for PRR19 (proline rich 19) [SID134329994]?
CDH1-null / parental viability ratio: 0.97; CDH1-null viability vs mock (fraction of mock): 0.62

What did the screen give for CLDN5 (claudin 5) [SID134315750]?
CDH1-null / parental viability ratio: 0.81; CDH1-null viability vs mock (fraction of mock): 0.38

What did the screen give for CGNL1 (cingulin like 1) [SID152154209]?
CDH1-null / parental viability ratio: 0.81; CDH1-null viability vs mock (fraction of mock): 0.78

How did the screen score PDZD8 (PDZ domain containing 8) [SID152149168]?
CDH1-null / parental viability ratio: 1.22; CDH1-null viability vs mock (fraction of mock): 0.84

Which result is listed for TRAK1 (trafficking kinesin protein 1) [SID135623966]?
CDH1-null / parental viability ratio: 1.2; CDH1-null viability vs mock (fraction of mock): 0.6

Copied from the entries so far (4 entries):
CWC27 (CWC27 spliceosome associated cyclophilin) [SID152154848] | CDH1-null / parental viability ratio: 0.96; CDH1-null viability vs mock (fraction of mock): 0.5
BIN3 (bridging integrator 3) [SID152155331] | CDH1-null / parental viability ratio: 1.07; CDH1-null viability vs mock (fraction of mock): 0.76
GALNT13 (polypeptide N-acetylgalactosaminyltransferase 13) [SID152154886] | CDH1-null / parental viability ratio: 0.76; CDH1-null viability vs mock (fraction of mock): 0.62
PI4K2B (phosphatidylinositol 4-kinase type 2 beta) [SID56479132] | CDH1-null / parental viability ratio: 1.36; CDH1-null viability vs mock (fraction of mock): 1.01

The results go on.
With SLC25A21 [SID152153181], what was measured?
CDH1-null / parental viability ratio: 1.08; CDH1-null viability vs mock (fraction of mock): 0.82

What did the screen give for ALOX12 (arachidonate 12-lipoxygenase, 12S type) [SID152156653]?
CDH1-null / parental viability ratio: 0.96; CDH1-null viability vs mock (fraction of mock): 0.9

What is on record for POLR2G (RNA polymerase II subunit G) [SID134315701]?
CDH1-null / parental viability ratio: 1.14; CDH1-null viability vs mock (fraction of mock): 0.5

Which result is listed for SYCP3 (synaptonemal complex protein 3) [SID152149895]?
CDH1-null / parental viability ratio: 0.98; CDH1-null viability vs mock (fraction of mock): 0.49

What is on record for LEP (leptin) [SID134315435]?
CDH1-null / parental viability ratio: 1.02; CDH1-null viability vs mock (fraction of mock): 0.98

For FLG2 (filaggrin 2) [SID152153111], what does the deposit list?
CDH1-null / parental viability ratio: 1.3; CDH1-null viability vs mock (fraction of mock): 0.6

For PTMS (parathymosin) [SID152150467], what does the deposit list?
CDH1-null / parental viability ratio: 1.18; CDH1-null viability vs mock (fraction of mock): 1.04

Which result is listed for GAGE7 (G antigen 7) [SID152153657]?
CDH1-null / parental viability ratio: 1.22; CDH1-null viability vs mock (fraction of mock): 0.6

What is on record for ABRAXAS2 (abraxas 2, BRISC complex subunit) [SID152149577]?
CDH1-null / parental viability ratio: 1.15; CDH1-null viability vs mock (fraction of mock): 0.92

What did the screen give for SLC35D2 [SID152155542]?
CDH1-null / parental viability ratio: 0.99; CDH1-null viability vs mock (fraction of mock): 0.85

What is on record for ZNF468 (zinc finger protein 468) [SID135624406]?
CDH1-null / parental viability ratio: 0.89; CDH1-null viability vs mock (fraction of mock): 0.68

With TWIST1 (twist family bHLH transcription factor 1) [SID152154759], how do the results read?
CDH1-null / parental viability ratio: 0.91; CDH1-null viability vs mock (fraction of mock): 0.5

How did the screen score HSD17B7 (hydroxysteroid 17-beta dehydrogenase 7) [SID135621514]?
CDH1-null / parental viability ratio: 0.83; CDH1-null viability vs mock (fraction of mock): 0.9

With MRE11 (MRE11 double strand break repair nuclease) [SID152148337], what does the deposit list?
CDH1-null / parental viability ratio: 1.18; CDH1-null viability vs mock (fraction of mock): 0.9

What did the screen give for MISO1 (mitochondrial inner membrane subdomain organizer 1) [SID134322012]?
CDH1-null / parental viability ratio: 0.8; CDH1-null viability vs mock (fraction of mock): 0.65

For RFX3 (regulatory factor X3) [SID134316082], what does the deposit list?
CDH1-null / parental viability ratio: 0.82; CDH1-null viability vs mock (fraction of mock): 0.7

What is on record for GLT1D1 (glycosyltransferase 1 domain containing 1) [SID135623033]?
CDH1-null / parental viability ratio: 0.89; CDH1-null viability vs mock (fraction of mock): 0.98

What is on record for F5 (coagulation factor V) [SID152150816]?
CDH1-null / parental viability ratio: 1; CDH1-null viability vs mock (fraction of mock): 0.86

With SCYL1 (SCY1 like pseudokinase 1) [SID152146872], what was measured?
CDH1-null / parental viability ratio: 0.93; CDH1-null viability vs mock (fraction of mock): 0.99

For EEF1AKMT1 (EEF1A lysine methyltransferase 1) [SID135623406], what was measured?
CDH1-null / parental viability ratio: 0.96; CDH1-null viability vs mock (fraction of mock): 0.5

Which result is listed for PIH1D1 (PIH1 domain containing 1) [SID135624092]?
CDH1-null / parental viability ratio: 1.25; CDH1-null viability vs mock (fraction of mock): 0.75
